The whole screen tested about 350,000 compounds, of which about 220 (0.063%) were called active. This list was built around the results that the source calls inconclusive (neither active nor inactive); the mix of calls is not that of the screen. Calls follow the shape of the dose curve; as a rule, active = well fitted activation curve with a large enough effect; inconclusive = small, poorly fitted or top-dose-only effect; inactive = no such curve, though single readings can be large or run the other way. A potency beside an inconclusive call is a rough fit, not a confirmed value.
experiment: qHTS for Activators of Integrin-Mediated Alleviation for Muscular Dystrophy; conditions: alpha7betagal myoblasts, beta-gal FDG fluorescence, 48 h; series mostly up to 38.3 µM; also: nearly all actives have a fitted effect of over 60% in size
Method in brief: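 Alpha7betagal+/- myoblasts (passage 13) were plated 16-24 hr, then exposed to compounds (1:260 dilution of DMSO stock) for 48 hours at 37C. After MPER lysis, β-galactosidase reporter activity was read as FDG fluorescence (ex 480/em 540) after 30 minutes.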
Potency is read from the fitted curve at half-maximal effect.

Potency, inactive:
Cc1cc(NC(=O)CCC(=O)N(C2CC2)C(C(=O)NC(C)(C)C)c2ccccc2Cl)no1 (stereo not drawn)
CC1(C)CC(=O)c2c(noc2-c2ccccc2)C1
O=C(CNC(=O)c1cccs1)NCCN1CCN(c2ccccc2F)CC1
C/C=C(/C)C(=O)O[C@@H]1c2c(ccc3ccc(=O)oc23)O[C@@H]1C(C)(C)OC(=O)/C(C)=C\C
CCCn1c(N)c(C(=O)CSc2nnc(C3CC3)n2C2CC2)c(=O)[nH]c1=O
NC(=O)C1CCN(C(=O)CSc2nc3ccccc3[nH]2)CC1
CC1CCN(c2ccc(-c3cccs3)nn2)CC1
O=C(CN1CCCC1)N1CCCc2ccccc21
COC(=O)C1=C(C)OC(N)=C(C#N)C1c1ccc(OC)c(CSc2ccccn2)c1 (stereo not drawn)
COc1ccc(-n2ncc3c(N4CCN(Cc5ccccc5)CC4)ncnc32)cc1
c1ccc(-c2c[n+]3c(n2-c2ccccc2)CCC3)cc1

A draw from above in order of heavy-atom count, high to low.
Potency, inactive:
Cc1cc(NC(=O)CCC(=O)N(C2CC2)C(C(=O)NC(C)(C)C)c2ccccc2Cl)no1 (stereo not drawn)
COC(=O)C1=C(C)OC(N)=C(C#N)C1c1ccc(OC)c(CSc2ccccn2)c1 (stereo not drawn)
NC(=O)C1CCN(C(=O)CSc2nc3ccccc3[nH]2)CC1

Next part.

Potency, inconclusive:
Cc1ccc(OC(=O)c2cccc(C(=O)Oc3ccc(C)cc3)n2)cc1 5.01 µM [activator, single point]
COc1ccc(CCNC(=O)c2ccccc2-c2ccccc2C(=O)O)cc1OC 2.82 µM [activator, single point]
Cc1nn(-c2ccccc2)c(C)c1/C=N/NC(=O)c1ccccc1NS(=O)(=O)c1cccs1 28.2 µM [activator, single point]
Cc1cccc(C)c1OCC(=O)Nc1ccc2c(c1)OCCO2 5.01 µM [activator, single point]
CC(C)(C)C(O)CN1CCCC1 (stereo not drawn) 5.01 µM [activator, single point]
CC(=O)c1cccc(NC(=O)c2ccc(NS(=O)(=O)c3c(C)noc3C)cc2)c1 28.2 µM [activator, single point]
CN(C(=O)COC(=O)c1ccc(Cl)s1)C1(C#N)CCCCC1 11.2 µM [activator, single point]
Cn1c(COc2ccccc2)nnc1SCC(=O)c1cccc([N+](=O)[O-])c1 10 µM [activator, partial curve, poor fit]
Cc1ccc2nc(SCC(=O)Nc3cccnc3Cl)[nH]c2c1 5.01 µM [activator, full curve, poor fit]
COc1cccc(CNC(=S)NC2CC2)c1 28.2 µM [activator, single point]
COc1ccccc1Nc1nnc(SCC(=O)c2c(N)n(C3CC3)c(=O)[nH]c2=O)s1 28.2 µM [activator, single point]
CN(C(=O)c1ccccc1-c1ccccc1C(=O)O)c1ccccc1 11.2 µM [activator, single point]
CCn1c(Oc2ccccc2C)nc2c1c(=O)n(C)c(=O)n2C 25.1 µM [activator, single point]
COC(=O)c1cc(S(=O)(=O)N2CCN(Cc3ccccc3)CC2)c[nH]1 15.8 µM [activator, partial curve, poor fit]
Nc1[nH]c2cc([N+](=O)[O-])ccc2c1-c1ccccn1 3.98 µM [activator, single point]
COc1ccccc1C(=O)Nc1ccc(OCC(=O)N2CC(C)CC(C)C2)cc1 (stereo not drawn) 2.82 µM [activator, single point]
COc1ccc(C2C(C(=O)OC3CCCCC3)=C(C)Nc3nnnn32)c(OC)c1OC (stereo not drawn) 11.2 µM [activator, single point]
c1ccc(OCc2nnnn2-c2ccccc2)cc1 12.6 µM [activator, single point]
Cc1ccc(S(=O)(=O)NCC(c2ccccc2)N2CCCCC2)cc1 (stereo not drawn) 15.8 µM [activator, partial curve, poor fit]
COC(=O)c1ccncc1C(=O)Nc1ccc(Oc2ncc(C(F)(F)F)cc2Cl)cc1 5.01 µM [activator, single point]
O=C(CNCc1ccc(Cl)cc1)NCc1ccco1 0.891 µM [activator, partial curve, poor fit]
CCN(CC)CCNC(=O)c1ccc(NC(=O)Cc2ccsc2)cc1 3.16 µM [activator, single point]
CCOc1ccc(C(=O)NCCC2=CCCCC2)cc1OCC 3.16 µM [activator, single point]
CC(C)(C)CC(C)(C)NC(=O)c1ccccc1 2 µM [activator, single point]
Cn1cc(Br)cc2nc(C(F)(F)F)nc1-2 31.6 µM [activator, partial curve, poor fit]
COc1cccc(OCC(=O)Nc2cc(NC(=O)COc3cccc(OC)c3)cc(C(=O)O)c2)c1 1.58 µM [activator, partial curve, poor fit]
COc1ccc(CCN2C(=O)N(c3ccc(OC)cc3)C(=O)C2CC(=O)Nc2ccc(OC)cc2)cc1 (stereo not drawn) 28.2 µM [activator, single point]
O=[N+]([O-])c1cccc(N=Cc2ccccc2)c1 4.47 µM [activator, full curve, poor fit]
Cc1c(NS(=O)(=O)c2ccc(N=NN(C)C)cc2)c(=O)n(-c2ccccc2)n1C 5.01 µM [activator, single point]
N/C(=N\OC(=O)COc1ccccc1)c1cccnc1 5.01 µM [activator, single point]
CCN(CC)c1ccc(S(=O)(=O)N2CCOCC2)cc1NC(=O)CSc1n[nH]c(N)n1 0.631 µM [activator, partial curve, poor fit]
CCOC(=O)c1c(S(=O)(=O)N(C)Cc2ccccc2)c(C)n(C)c1C 10 µM [activator, single point]

9 structures from above, ordered by heavy-atom count, ascending:
Potency, inconclusive:
Cn1cc(Br)cc2nc(C(F)(F)F)nc1-2 31.6 µM [activator, partial curve, poor fit]
COc1cccc(CNC(=S)NC2CC2)c1 28.2 µM [activator, single point]
O=[N+]([O-])c1cccc(N=Cc2ccccc2)c1 4.47 µM [activator, full curve, poor fit]
Nc1[nH]c2cc([N+](=O)[O-])ccc2c1-c1ccccn1 3.98 µM [activator, single point]
CN(C(=O)COC(=O)c1ccc(Cl)s1)C1(C#N)CCCCC1 11.2 µM [activator, single point]
CCOc1ccc(C(=O)NCCC2=CCCCC2)cc1OCC 3.16 µM [activator, single point]
COC(=O)c1cc(S(=O)(=O)N2CCN(Cc3ccccc3)CC2)c[nH]1 15.8 µM [activator, partial curve, poor fit]
COc1ccc(CCNC(=O)c2ccccc2-c2ccccc2C(=O)O)cc1OC 2.82 µM [activator, single point]
COC(=O)c1ccncc1C(=O)Nc1ccc(Oc2ncc(C(F)(F)F)cc2Cl)cc1 5.01 µM [activator, single point]

Source: PubChem BioAssay AID624291 (National Center for Advancing Translational Sciences (NCATS), 2012)
